Assay results published in patent publication US20180086829A1.
Results are given in words; binding and its absence hold for the method and conditions named. Some results given as binding are weak or reduced against the parent protein; the word gives no strength.

Sequences of proteins named here, by UniProt entry; tags and fusion partners are left off. A change or cut given only in a name is not applied to a line headed by its entry. Residues count along the entry.
UniProt Q8N423, residues 22-458: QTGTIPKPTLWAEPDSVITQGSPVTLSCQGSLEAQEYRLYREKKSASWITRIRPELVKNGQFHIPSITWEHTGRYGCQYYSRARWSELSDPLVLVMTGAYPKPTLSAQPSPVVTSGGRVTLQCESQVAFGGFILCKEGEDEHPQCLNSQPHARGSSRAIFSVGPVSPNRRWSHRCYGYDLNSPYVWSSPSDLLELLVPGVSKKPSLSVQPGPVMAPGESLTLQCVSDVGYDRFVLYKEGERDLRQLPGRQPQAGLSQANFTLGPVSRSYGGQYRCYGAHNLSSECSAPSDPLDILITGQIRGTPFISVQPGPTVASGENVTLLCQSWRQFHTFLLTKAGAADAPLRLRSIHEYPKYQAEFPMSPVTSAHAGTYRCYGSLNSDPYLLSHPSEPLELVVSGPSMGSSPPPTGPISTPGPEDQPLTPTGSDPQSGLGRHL
UniProt Q8NHJ6: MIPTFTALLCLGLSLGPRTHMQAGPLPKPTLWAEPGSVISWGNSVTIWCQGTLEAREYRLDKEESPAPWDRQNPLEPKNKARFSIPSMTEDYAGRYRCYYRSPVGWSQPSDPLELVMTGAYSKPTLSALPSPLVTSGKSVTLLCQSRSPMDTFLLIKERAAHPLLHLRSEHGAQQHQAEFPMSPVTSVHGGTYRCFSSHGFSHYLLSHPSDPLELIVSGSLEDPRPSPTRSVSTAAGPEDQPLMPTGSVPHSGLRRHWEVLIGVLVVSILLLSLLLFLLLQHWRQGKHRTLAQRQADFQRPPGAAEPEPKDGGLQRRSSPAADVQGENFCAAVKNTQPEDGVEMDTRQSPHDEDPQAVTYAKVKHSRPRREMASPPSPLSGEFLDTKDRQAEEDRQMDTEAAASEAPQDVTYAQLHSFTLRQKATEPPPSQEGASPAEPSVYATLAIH

Assays:
[1] = molecular target: LILRB2 (human) (UniProt Q8N423); experiment: binding model of FIG. 74
[2] = molecular target: LILRB2 (human) (UniProt Q8N423); experiment: cross-reactivity ELISA (FIG. 46)
[3] = molecular target: human LILRB4 (human) (UniProt Q8NHJ6); experiment: ELISA

| binding [1] | binding [2] | binding [3] | Binder |
| --- | --- | --- | --- |
| binds | binds |  | anti-LILRB4 rabbit monoclonal antibody #216-2 (antibody, V domains shown) VH: EQSLKESGGRLVTPGTPLTLTCTVSGIDLSSYAMTWVRQVPGKGLEYIGFINIVGIAGYATWAKGRFTISKTSTTVDLKVTSPTTEDTATYFCARNWIRLDLWGQGTLVTVSS VL: ELVMTQTPASVSAAVGGTVTISCQSSESLYKKNYLSWFQQKPGQPPKLLIYEASKLASGVPSRFSGSGSGTQFTLTISDVQCDDAASYYCLGDYTNGRDTTFGGGTEVEIK |
|  |  | binds | anti-LILRB4 rabbit monoclonal antibody #161-2 (antibody, V domains shown) VH: QSVKESGGRLVTPGTPLTLTCTVSGIDLSVYLMSWVRHSPGKGLEYIGFINSAGITAYATWAKGRFIISKTSTTVDLKVTSPTTEDTATYFCARNWIRLDLWGQGTLVTISS VL: TQTPASVSAAVGGTVTISCQSSETIYKNYLSWFQQKPGQPPKLLIYESSKLASGVPSRFSGSGSGTQFTLTISDVQCDDAATYYCLGGYTDGRDTIFGGGTEVEIK |
|  | binds |  | anti-LILRB4 rabbit monoclonal antibody #139 (antibody, V domains shown) VH: EQSLEESGGRLVTPGTPLTLTCTVSGFSLNSYAMAWVRQAPGKGLEWIGIIGLSTMTYYASWVNGRFTISKTSTTVDLKMTSLTTEDTATYFCVRNDVYWAFNLWGQGTLVTVSS VL: ELDLTQTPSSVSAGVGGTVSISCQSSESVVNNHALSWYQQKPGQPPKLLIYKASTLASGVPSRFSGSGSGAQFTLTISGVQCDDAATYYCQGGFYSGISDYPFGGGTEVEIK |
